Results are given in words; binding and its absence hold for the method and conditions named. In cells and extracts the contact can be indirect. Some results given as binding are weak or reduced against the parent protein; the word gives no strength. For some assays here: Tags and fused reporters may be left off the sequences shown.
Legend:
[1] = biological target: PD-L1-FLAG (Programmed Cell Death 1 Ligand 1) (UniProt Q9NZQ7); experiment: co-IP; USP22, CSN5 and PD-L1 plasmids transfected as indicated, with or without the third protein (Fig. 7a, b); cells and antibodies not stated
[2] = biological target: PD-L1-FLAG (Programmed Cell Death 1 Ligand 1) (UniProt Q9NZQ7); experiment: co-IP; HEK293FT cells, transfected; IP with either anti-HA or anti-FLAG antibody; lysis buffer 20 mM Tris-HCl pH 7.5, 150 mM NaCl, 1% Triton; Western blot
[3] = biological target: PD-L1-FLAG (Programmed Cell Death 1 Ligand 1) (UniProt Q9NZQ7); experiment: co-IP; within the PD-L1 ubiquitination experiment with wild type or C185A USP22 (Fig. 4c); cells not stated for this panel
[4] = biological target: CSN5-His (COP9 Signalosome Subunit 5) (UniProt Q92905); experiment: co-IP; HEK293FT cell lysates, IP under non-denaturing conditions with either anti-HA or anti-His antibody
PD-L1 in H157 cells = PD-L1 in H157 cells (UniProt Q9NZQ7); experiment: co-IP; H157 cells (Fig. S2A); lysis buffer 20 mM Tris-HCl pH 7.5, 150 mM NaCl, 1% Triton; Western blot
[5] = biological target: endogenous CSN5 (H1299 cells) (human (endogenous in H1299)) (UniProt Q92905); experiment: co-IP; H1299 cells, endogenous proteins, IP with anti-USP22 or anti-CSN5 antibody

By UniProt entry, the sequences of proteins in these tests, tags left out. Residues count along the entry.
UniProt Q9NZQ7, residues 19-290: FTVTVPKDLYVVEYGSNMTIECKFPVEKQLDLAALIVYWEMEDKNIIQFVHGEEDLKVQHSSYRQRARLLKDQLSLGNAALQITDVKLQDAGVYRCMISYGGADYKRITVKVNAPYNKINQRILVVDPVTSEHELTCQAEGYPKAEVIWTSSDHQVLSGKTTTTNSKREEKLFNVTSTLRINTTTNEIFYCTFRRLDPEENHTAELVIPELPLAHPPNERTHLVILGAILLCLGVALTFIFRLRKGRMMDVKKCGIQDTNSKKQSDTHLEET
UniProt Q92905: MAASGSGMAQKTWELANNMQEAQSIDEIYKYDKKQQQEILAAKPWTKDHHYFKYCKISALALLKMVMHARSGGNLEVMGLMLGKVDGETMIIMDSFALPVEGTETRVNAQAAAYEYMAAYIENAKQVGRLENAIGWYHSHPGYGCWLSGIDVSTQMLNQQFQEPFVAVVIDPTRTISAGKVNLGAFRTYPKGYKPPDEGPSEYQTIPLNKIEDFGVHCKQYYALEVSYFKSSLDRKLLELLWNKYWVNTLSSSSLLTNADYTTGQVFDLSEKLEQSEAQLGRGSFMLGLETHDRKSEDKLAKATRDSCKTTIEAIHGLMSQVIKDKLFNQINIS

| Molecule | binding [1] | binding [3] | further results |
| --- | --- | --- | --- |
| CSN5-His (COP9 Signalosome Subunit 5) (from UniProt Q92905 1-334) | binds | – | – |
| USP22-HA (Ubiquitin Specific Peptidase 22) (enzyme, UniProt Q9UPT9 1-525) MVSRPEPEGEAMDAELAVAPPGCSHLGSFKVDNWKQNLRAIYQCFVWSGTAEARKRKAKSCICHVCGVHLNRLHSCLYCVFFGCFTKKHIHEHAKAKRHNLAIDLMYGGIYCFLCQDYIYDKDMEIIAKEEQRKAWKMQGVGEKFSTWEPTKRELELLKHNPKRRKITSNCTIGLRGLINLGNTCFMNCIVQALTHTPLLRDFFLSDRHRCEMQSPSSCLVCEMSSLFQEFYSGHRSPHIPYKLLHLVWTHARHLAGYEQQDAHEFLIAALDVLHRHCKGDDNGKKANNPNHCNCIIDQIFTGGLQSDVTCQVCHGVSTTIDPFWDISLDLPGSSTPFWPLSPGSEGNVVNGESHVSGTTTLTDCLRRFTRPEHLGSSAKIKCSGCHSYQESTKQLTMKKLPIVACFHLKRFEHSAKLRRKITTYVSFPLELDMTPFMASSKESRMNGQYQQPTDSLNNDNKYSLFAVVNHQGTLESGHYTSFIRQHKDQWFKCDDAIITKASIKDVLDSEGYLLFYHKQFLEYE | binds | binds | binding [2]: binds; binding [4]: binds |
| USP22-C185A (enzyme, UniProt Q9UPT9 1-525) MVSRPEPEGEAMDAELAVAPPGCSHLGSFKVDNWKQNLRAIYQCFVWSGTAEARKRKAKSCICHVCGVHLNRLHSCLYCVFFGCFTKKHIHEHAKAKRHNLAIDLMYGGIYCFLCQDYIYDKDMEIIAKEEQRKAWKMQGVGEKFSTWEPTKRELELLKHNPKRRKITSNCTIGLRGLINLGNTAFMNCIVQALTHTPLLRDFFLSDRHRCEMQSPSSCLVCEMSSLFQEFYSGHRSPHIPYKLLHLVWTHARHLAGYEQQDAHEFLIAALDVLHRHCKGDDNGKKANNPNHCNCIIDQIFTGGLQSDVTCQVCHGVSTTIDPFWDISLDLPGSSTPFWPLSPGSEGNVVNGESHVSGTTTLTDCLRRFTRPEHLGSSAKIKCSGCHSYQESTKQLTMKKLPIVACFHLKRFEHSAKLRRKITTYVSFPLELDMTPFMASSKESRMNGQYQQPTDSLNNDNKYSLFAVVNHQGTLESGHYTSFIRQHKDQWFKCDDAIITKASIKDVLDSEGYLLFYHKQFLEYE | – | binds | – |
| USP22 in H157 cells (enzyme, UniProt Q9UPT9 1-525) MVSRPEPEGEAMDAELAVAPPGCSHLGSFKVDNWKQNLRAIYQCFVWSGTAEARKRKAKSCICHVCGVHLNRLHSCLYCVFFGCFTKKHIHEHAKAKRHNLAIDLMYGGIYCFLCQDYIYDKDMEIIAKEEQRKAWKMQGVGEKFSTWEPTKRELELLKHNPKRRKITSNCTIGLRGLINLGNTCFMNCIVQALTHTPLLRDFFLSDRHRCEMQSPSSCLVCEMSSLFQEFYSGHRSPHIPYKLLHLVWTHARHLAGYEQQDAHEFLIAALDVLHRHCKGDDNGKKANNPNHCNCIIDQIFTGGLQSDVTCQVCHGVSTTIDPFWDISLDLPGSSTPFWPLSPGSEGNVVNGESHVSGTTTLTDCLRRFTRPEHLGSSAKIKCSGCHSYQESTKQLTMKKLPIVACFHLKRFEHSAKLRRKITTYVSFPLELDMTPFMASSKESRMNGQYQQPTDSLNNDNKYSLFAVVNHQGTLESGHYTSFIRQHKDQWFKCDDAIITKASIKDVLDSEGYLLFYHKQFLEYE | – | – | binding (PD-L1 in H157 cells): binds |
| endogenous USP22 (H1299 cells) (enzyme, UniProt Q9UPT9 1-525) MVSRPEPEGEAMDAELAVAPPGCSHLGSFKVDNWKQNLRAIYQCFVWSGTAEARKRKAKSCICHVCGVHLNRLHSCLYCVFFGCFTKKHIHEHAKAKRHNLAIDLMYGGIYCFLCQDYIYDKDMEIIAKEEQRKAWKMQGVGEKFSTWEPTKRELELLKHNPKRRKITSNCTIGLRGLINLGNTCFMNCIVQALTHTPLLRDFFLSDRHRCEMQSPSSCLVCEMSSLFQEFYSGHRSPHIPYKLLHLVWTHARHLAGYEQQDAHEFLIAALDVLHRHCKGDDNGKKANNPNHCNCIIDQIFTGGLQSDVTCQVCHGVSTTIDPFWDISLDLPGSSTPFWPLSPGSEGNVVNGESHVSGTTTLTDCLRRFTRPEHLGSSAKIKCSGCHSYQESTKQLTMKKLPIVACFHLKRFEHSAKLRRKITTYVSFPLELDMTPFMASSKESRMNGQYQQPTDSLNNDNKYSLFAVVNHQGTLESGHYTSFIRQHKDQWFKCDDAIITKASIKDVLDSEGYLLFYHKQFLEYE | – | – | binding [5]: binds |

— publication PMC7362500
